The list shows a part of the results. Further columns of the screen follow, without active or inactive calls. The list favours compounds with an active or inconclusive main result. The note in brackets gives the kind of curve behind each potency; many fits are weak.
Assay: qHTS Assay for Lipid Storage Modulators in Drosophila S3 Cells;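 as to cell number change: cells counted by Cell Tracker Red CMTPX staining in the red channel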
Details: BODIPY lipid droplet fluorescence, 18-24 h; for cell number change: measured here: cell count max response, cells fed with added oleic acid
How it was run: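 Drosophila S3 cells loaded with oleic acid (400 uM, as added) and compounds at several concentrations; lipid droplets imaged by 488-nm laser-scanning cytometry, 500–530 nm intensity and object ratio to cell channel. Percent activity normalized to 20 uM Triacsin C.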

[1] = measured here: lipid fluorescence (Fed channel) AC50, cells fed with added oleic acid
[2] = measured here: cell number channel AC50, cells fed with added oleic acid

Compound	cell number change [%]	AC50 [1]	AC50 [2]
CC(NC(=O)COC(=O)Cc1ccccc1[N+](=O)[O-])c1ccccc1 (stereo not given)	-7.84	0.103 µM [falling, full curve, poor fit]	–
COc1ccc(/C=C(\NC(=O)c2ccccc2)C(=O)N2CCN(C)CC2)cc1OC	5.86	1.46 µM [falling, full curve]	–
O=C(Cc1coc(-c2ccc(F)cc2)n1)Nc1ccccc1	2.97	0.164 µM [rising, single point]	–
COc1ccc(CNc2cc(C)ccn2)cc1	13.6	0.13 µM [rising, full curve, poor fit]	–
CCOc1ccc(NC(=O)CCCOc2cc(=O)n(C)c3ccccc23)cc1	18.7	1.16 µM [rising, full curve]	–
Cc1cc(NC(=O)CCN2C(=O)/C(=C/c3ccccc3Cl)SC2=S)no1	-18.7	25.9 µM [falling, single point]	–
Cc1ccc(C(=O)N[C@H](C(=O)Nc2sccc2C(N)=O)C(C)C)cc1	15.2	1.46 µM [rising, full curve]	–
Fc1ccc(C2=CC(c3ccco3)n3ncnc3N2)cc1 (stereo not given)	5.75	0.092 µM [falling, full curve, poor fit]	–
O=C(CCN1C(=O)C2C3C=CC(C3)C2C1=O)NCCN1CCCc2ccccc21 (stereo not given)	-4.83	3.66 µM [rising, partial curve]	–
CCCN1CCc2c(sc(NC(=O)c3ccc(S(=O)(=O)N4CCCC4)cc3)c2C(N)=O)C1	-9.05	5.17 µM [falling, partial curve, poor fit]	–
CC1(C)CC(=O)C(=Cc2cn(CCC#N)nc2-c2ccc(Cl)cc2)C(=O)C1	-32.1	1.46 µM [falling, full curve, poor fit]	3.66 µM [falling, full curve]
O=C(N/N=C/c1ccco1)c1ccccc1OCc1ccccc1Cl	15.4	1.64 µM [rising, single point]	1.16 µM [rising, partial curve]
N#CC12CCCCC1CC1CCCCC1(C#N)N2Cc1ccccn1 (stereo not given)	-32.8	–	0.00731 µM [falling, full curve]
CCOC(=O)c1c(-c2ccccc2)csc1NC(=O)c1cc(S(=O)(=O)N2CCOCC2)ccc1C	-37.2	4.11 µM [falling, single point]	8.2 µM [falling, partial curve]
O=C(NCCc1c[nH]c2ccccc12)/C(=C\c1cccs1)NC(=O)c1ccccc1	-12.5	4.61 µM [rising, partial curve]	–
OC(COc1ccc2c(c1)OCO2)CN1CCCC1 (stereo not given)	-33.9	23.1 µM [falling, single point]	2.06 µM [falling, single point]
CCN(CC)C(=O)/C(=C/c1ccc2c(c1)OCO2)NC(=O)c1ccc(Br)cc1	-5.67	0.517 µM [falling, single point]	–
CCC(C)NC(=O)c1cn(CC)c2ccc(S(=O)(=O)N3CCCCCC3)cc2c1=O (stereo not given)	-5.65	18.4 µM [falling, partial curve]	–
Cc1cccc(NC(=O)CSCC(=O)Nc2sccc2C#N)c1	-35.8	29.1 µM [falling, single point]	18.4 µM [falling, partial curve]
CCOc1ccc(OCC)c(NC(=O)CCS(=O)(=O)c2ccc(Br)s2)c1	–	–	1.64 µM [rising, single point]

Compound	cell number change [%]	AC50 [1]	AC50 [2]
Cc1nc(NNC(=O)c2ccccc2)cc(-c2ccccc2)n1	5.95	6.51 µM [rising, single point]	–
CCN(C(=O)COC(=O)CNC(=O)C1CCCCC1)c1ccccc1	–	1.64 µM [falling, single point]	–
C/C(=N\Nc1cccc(C(F)(F)F)c1)c1ccc(O)cc1	-10.8	–	–
Cc1ccc2c3c1C(=O)C(=O)N3C(C)(C)CC2C (stereo not given)	-11	9.2 µM [rising, partial curve, poor fit]	–
N#Cc1c(N)nc(-c2ccccc2)nc1-c1ccccc1	-39.6	29.1 µM [falling, single point]	18.4 µM [falling, partial curve]
COc1ccc(S(=O)(=O)Nc2ccc(S(=O)(=O)Nc3nc(C)cc(C)n3)cc2)cc1OC	-1.09	0.731 µM [falling, full curve, poor fit]	–
O=C(O)c1[nH]c2ccccc2c1C(c1cc(Cl)cc([N+](=O)[O-])c1O)c1c(C(=O)O)[nH]c2ccccc12	-33.7	–	29.1 µM [falling, single point]
CC(=O)N[C@@H](Cc1c[nH]c2ccccc12)C(=O)OCc1ccc(C#N)cc1	-17.1	–	–
CC1CCc2sc(C(=O)N3CCC(C(N)=O)CC3)cc2C1 (stereo not given)	1.53	5.8 µM [falling, full curve]	–
Cc1ccc(NC(=O)C2CCCN2S(=O)(=O)c2ccc3c(c2)CCC(=O)N3)cc1Cl (stereo not given)	-1.52	–	–
COc1ccc(OC)c(CN2CCN(C(=O)CNC(=O)c3cc(C)cc(C)c3)CC2)c1	1.63	6.51 µM [rising, single point]	–
CC(=O)N1CC(C)Sc2ccc(S(=O)(=O)NCCc3ccccc3)cc21 (stereo not given)	-40.5	–	0.00517 µM [falling, full curve, poor fit]
O=C(Nc1ccccn1)C1CCN(S(=O)(=O)c2ccc3c(c2)OCCO3)CC1	33.7	13 µM [rising, partial curve]	18.4 µM [rising, partial curve, poor fit]
COc1ccc(N2CCN(C(=O)CCCCCn3c(=S)[nH]c4cc5c(cc4c3=O)OCO5)CC2)cc1	1.18	0.58 µM [rising, single point]	–
O=C(NCc1ccc(Cl)s1)c1cc(COc2c(F)cccc2F)on1	-1.67	0.259 µM [rising, full curve, poor fit]	–
O=[N+]([O-])/C=C/c1cn(Cc2ccc(F)cc2)c2ccccc12	–	9.2 µM [falling, partial curve]	–
COc1ccc(NC(=O)CCSc2ccc3ccccc3n2)cc1	-34.5	6.51 µM [rising, partial curve, poor fit]	2.31 µM [falling, partial curve, poor fit]
Cc1ccc(OCCCCN2CCC(C)CC2)c(Br)c1	-16.7	–	6.51 µM [falling, single point]
CC1=C(C(=O)Nc2cccc(C(=O)NC3CCCCC3C)c2)SCCO1 (stereo not given)	-0.295	5.8 µM [falling, single point]	–
CCOC(=O)N1CCN(C(=O)CSc2nc3ccccc3c(=O)n2-c2ccccc2)CC1	-8.68	–	–

Compound	cell number change [%]	AC50 [1]	AC50 [2]
O=C(Nc1ccccc1C(=O)O)c1ccc(N2C(=O)C3CC=CCC3C2=O)cc1 (stereo not given)	-27.9	–	0.146 µM [falling, full curve, poor fit]
CCN=C1SC(CC(=O)NCCc2ccc(OC)cc2)C(=O)N1CC (stereo not given)	31.2	–	29.1 µM [rising, single point]
Cc1cccnc1Sc1c([N+](=O)[O-])ncn1C	-4.2	3.26 µM [rising, single point]	–
O=C(N/N=C/C(Cl)=C/c1ccccc1)c1ccncc1	–	–	6.51 µM [rising, single point]
Cc1sc2nc(SCC(=O)NCCO)n(-c3ccccc3)c(=O)c2c1C	15.3	0.82 µM [falling, single point]	–
O=C(NC(=S)N1CCN(CCO)CC1)C12CC3CC(CC(C3)C1)C2	30.5	11.6 µM [rising, partial curve, poor fit]	1.16 µM [rising, full curve]
Cc1cc(C)c2nc3nc(C)c(C)cc3c(N)c2c1	0.172	–	–
CCOC(=O)c1ccc(NC(=O)CSc2nncn2-c2cccnc2)cc1	3.36	0.103 µM [rising, full curve, poor fit]	–
O=C(Nc1ccc(F)cc1)C1CCCN(S(=O)(=O)c2cccc3cccnc23)C1 (stereo not given)	15.6	–	–
C1=C[C@@H]2CCN(Cc3ccccc3)Cc3cccc(c32)C1	-30.1	6.51 µM [rising, single point]	16.4 µM [falling, single point]
C#CCn1c(=NC(=O)c2ccc(Br)s2)sc2cccc(OC)c21	1.01	–	–
CN(CCOc1cccc2ccccc12)Cc1ccccc1	-28.3	–	–
O=C(CC(=O)N/N=C/c1ccc(F)cc1)N/N=C/c1ccc(F)cc1	–	1.84 µM [rising, single point]	–
Cc1nc2nc(-c3ccc(Cl)cc3)nn2c(C)c1Cl	8.2	6.51 µM [rising, single point]	0.184 µM [rising, partial curve, poor fit]
CS(=O)(=O)c1ccc(C(=O)N2CCc3ccccc3C2)cc1	-41.5	–	3.66 µM [falling, full curve]
O=C(CSc1nnc(-c2ccccc2F)o1)N1CCCC1	–	1.16 µM [falling, full curve, poor fit]	–
CC(C)(C)NC(=O)NC(=O)COc1ccccc1C#N	–	–	0.231 µM [rising, full curve]
Cc1cccc(C(=O)NCC(=O)NCCCSc2ccccc2)c1	31.4	29.1 µM [rising, single point]	29.1 µM [rising, single point]
O=C(Nc1nc2ccc(F)cc2s1)C1=NN(c2ccccc2)C(=O)CC1	-10.2	0.206 µM [rising, full curve]	–

Record cards, from the list above. Values in the order: cell number change [%]	AC50 [1]	AC50 [2]
`O=C(Nc1nc2ccc(F)cc2s1)C1=NN(c2ccccc2)C(=O)CC1` is listed with -10.2	0.206 µM [rising, full curve]	–
`O=C(Nc1ccccn1)C1CCN(S(=O)(=O)c2ccc3c(c2)OCCO3)CC1` is listed with 33.7	13 µM [rising, partial curve]	18.4 µM [rising, partial curve, poor fit]

Reference: PubChem BioAssay AID2685 (National Center for Advancing Translational Sciences (NCATS), 2010)
